According to paper PMC5824958:
Results are given in words; binding and its absence hold for the method and conditions named. In cells and extracts the contact can be indirect. These calls come from enrichment with a bait or labelling near it, and not all partners need be listed.

T1: BRI2 (integral membrane protein 2B) (rat (endogenous in brain)) (UniProt Q5XIE8)
T1 sequence: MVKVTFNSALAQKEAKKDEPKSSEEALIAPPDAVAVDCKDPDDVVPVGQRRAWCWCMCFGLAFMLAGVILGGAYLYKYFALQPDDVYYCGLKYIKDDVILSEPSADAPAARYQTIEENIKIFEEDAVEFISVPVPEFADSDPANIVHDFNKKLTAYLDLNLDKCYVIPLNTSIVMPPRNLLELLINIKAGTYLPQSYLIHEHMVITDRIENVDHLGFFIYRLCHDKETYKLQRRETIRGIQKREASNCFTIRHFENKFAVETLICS

B1: Gamma-aminobutyric acid type B receptor subunit 2 (protein, UniProt O88871 41-940)
chain: WTRGAPRPPPSSPPLSIMGLMPLTKEVAKGSIGRGVLPAVELAIEQIRNESLLRPYFLDLRLYDTECDNAKGLKAFYDAIKYGPNHLMVFGGVCPSVTSIIAESLQGWNLVQLSFAATTPVLADKKKYPYFFRTVPSDNAVNPAILKLLKHFRWRRVGTLTQDVQRFSEVRNDLTGVLYGEDIEISDTESFSNDPCTSVKKLKGNDVRIILGQFDQNMAAKVFCCAFEESMFGSKYQWIIPGWYEPAWWEQVHVEANSSRCLRRSLLAAMEGYIGVDFEPLSSKQIKTISGKTPQQFEREYNSKRSGVGPSKFHGYAYDGIWVIAKTLQRAMETLHASSRHQRIQDFNYTDHTLGKIILNAMNETNFFGVTGQVVFRNGERMGTIKFTQFQDSREVKVGEYNAVADTLEIINDTIRFQGSEPPKDKTIILEQLRKISLPLYSILSALTILGMIMASAFLFFNIKNRNQKLIKMSSPYMNNLIILGGMLSYASIFLFGLDGSFVSEKTFETLCTVRTWILTVGYTTAFGAMFAKTWRVHAIFKNVKMKKKIIKDQKLLVIVGGMLLIDLCILICWQAVDPLRRTVERYSMEPDPAGRDISIRPLLEHCENTHMTIWLGIVYAYKGLLMLFGCFLAWETRNVSIPALNDSKYIGMSVYNVGIMCIIGAAVSFLTRDQPNVQFCIVALVIIFCSTITLCLVFVPKLITLRTNPDAATQNRRFQFTQNQKKEDSKTSTSVTSVNQASTSRLEGLQSENHRLRMKITELDKDLEEVTMQLQDTPEKTTYIKQNHYQELNDILSLGNFTESTDGGKAILKNHLDQNPQLQWNTTEPSRTCKDPIEDINSPEHIQRRLSLQLPILHHAYLPSIGGVDASCVSPCVSPTASPRHRHVPPSFRVMVSGL
B2: Ankyrin repeat and sterile alpha motif domain-containing protein 1B (protein, UniProt P0C6S7 1-1260)
chain: MGKDQELLEAARTGNVALVEKLLSGRKGGILGGGSGPLPLSNLLSIWRGPNVNCTDSSGYTALHHAALNGHKDIVLKLLQFEASTNVADNKGYFPIHLAAWKGDVEIVKILIHHGPSHSRVNEQNNENETALHCAAQYGHSEVVAVLLEELTDPTIRNSKLETPLDLAALYGRLRVVKMIISAHPNLMSCNTRKHTPLHLAARNGHKAVVQVLLEAGMDVSCQTEKGSALHEAALFGKVDVVRVLLETGIDANIKDSLGRTVLDILKEHPSQKSLQIATLLQDYLEGVGRSVVLEEEHAQEDTAQETRLSSPAQSPSQKTKSETVTGELSKLLDEIKLCQEKDYSFEDLCHTISDHYLDNLSKISEEELGKNGSQSVRTSSTINLSPGEVEDEEEDPNSCGPTGLWEALTPCNGCRNLGFPMLAQESYPKKRNYPMEIVPSASLDTFPSENENFLCELVDTAVTKKPCSLEIARAPSPRTDNASEVAITAPGTGHHRNSSTGPTPDCSPPSPDTALKNIVKVIRPQPKQRTSIVSSLDFQRMNHNQEYFEISTSTGCTSFTSSPPVSPPTSSVETTEIKNEGAEHTDDLSQQEDDEPPKEYDAGQFAGLLHGSSPACEAPENPFHLYGKRNQGEDGQEEASLANSPLPFKQTPIENNPEPSVKKIKPKVVSRTIFHKRSHQLENHTIVGTRMSRGGSRNGDQWGVNPGGFVERACTLGRIRSLPKALIDMHLSKNVSKSDSDLIAYPSKDKARVNWSKSSTAERSSKDNSERTPSFTSEWEEIDKIMNSIDVGINSELEGMNGEATRPRCPVQTVGQWLESIGLPQYENHLTANGFDNVQFMGSNVMEDQDLLEIGILNSGHRQRILQAIQLLPKMRPIGHDGYHPTSVAEWLDSIELGDYTKAFLINGYTSMDLLKKIWELELINVLKISLIGHRKRILASLGDRLHEDPPQKPPRSITLREPSGNHTPPQLSPSLSQSTYTTGGSLDVPHIIMQGDARRRRNENYFDDIPRSKLERQMAQTGDWGEPSITLRPPNEATASTPVQYWQHHPEKLIFQSCDYKAFYLGSMLIKELRGTESTQDACAKMRANCQKSTEQMKKVPTIILSVSYKGVKFIDAANKNIIAEHEIRNISCAAQDPEDLSTFAYITKDLKSNHHYCHVFTAFDVNLAYEIILTLGQAFEVAYQLALQARKGGHSSTLPESFENKPSKPIPKPRVSIRKSVQIDPSEQKTLANLPWIVEPGQEAKRGINTKYETTIF
B3: Guanine deaminase (protein, UniProt Q9WTT6 1-454)
chain: MCAARRRELALIFRGTFVHSTWTCPMEVLRDHLLGVSDSGKIVFLEESSQQEKLAKEWCFKPCEIRELSHHEFFMPGLVDTHIHAPQYAFAGSNVDLPLLDWLNKYTFPTEKRFQSTDVAEEVYTRVVRRTLKNGTTTACYFGTIHTDSSLILAEITDKFGQRAFVGKVCMDLNNTVPEYKETTEESVKETERFVSEMLQKNYSRVKPIVTPRFSLSCTETLMSELGNIAKTHDLYIQSHISENREEIEAVKSLYPGYKNYTDVYDKNNLLTNKTVMAHGCYLSEEELNVFSERGASIAHCPNSNLSLSSGLLNVLDVLKHKVKIGLGTDVAGGYSYSMLDAIRRAVMVSNVLLINKVNEKSLTLKEVFRLATLGGSQALGLDREIGNFEVGKDFDALLINPRASDSPIDLFCGDFVGDISEAVIQKFLYLGDDRNIEEVYVGGKQVVPFSSSV
B4: Hyaluronan and proteoglycan link protein 2 (protein, UniProt Q9ESM2 28-341)
chain: NPAPHPGPHYLLPPIHEVIHSRRGATATLPCVLGTSPPSYKVRWSKVEPGELRETLILITNGLHARDYGLLGGRASLRRGHRLDASLIIKNVRLEDEGRYRCELINGIEDESVALTLRLEGVVFPYQPSRGRYQFNYFEAKRACEEQDGRLATYSQLYQAWTEGLDWCNAGWLLEGSVRYPVLNARAPCGGHGRPGIRSYGPRDRSRDRYDAFCFTSALAGQVFFVPGRLTLSEAHAVCRRRGAVVAKVGHLYAAWKFSGLDRCDGGWLADGSVRFPITTPRPRCGGLPDPGVRSFGFPRPQQAAYGTYCYAEK
B5: Ketimine reductase mu-crystallin (protein, UniProt Q9QYU4 1-313)
chain: MRRAPAFLSADEVQDHLRSSSLLIPPLEAALANFSKGPDGGVMQPVRTVVPVAKHRGFLGVMPAYSAAEDALTTKLVTFYEGHSNNAVPSHQASVLLFDPSNGSLLAVMDGNVITAKRTAAVSAIATKFLKPPGSDVLCILGAGVQAYSHYEIFTEQFSFKEVRMWNRTRENAEKFASSVQGDVRVCSSVQEAVTGADVIITVTMATEPILFGEWVKPGAHINAVGASRPDWRELDDELMKQAVLYVDSREAALKESGDVLLSGADIFAELGEVVSGAKPAYCEKTTVFKSLGMAVEDLVAAKLVYDSWSSGK
B6: Limbic system-associated membrane protein (protein, UniProt Q62813 29-315)
chain: VRSVDFNRGTDNITVRQGDTAILRCVVEDKNSKVAWLNRSGIIFAGHDKWSLDPRVELEKRHALEYSLRIQKVDVYDEGSYTCSVQTQHEPKTSQVYLIVQVPPKISNISSDVTVNEGSNVTLVCMANGRPEPVITWRHLTPLGREFEGEEEYLEILGITREQSGKYECKAANEVSSADVKQVKVTVNYPPTITESKSNEATTGRQASLKCEASAVPAPDFEWYRDDTRINSANGLEIKSTEGQSSLTVTNVTEEHYGNYTCVAANKLGVTNASLVLFRPGSVRGIN
B7: Microtubule-associated protein 6 (protein, UniProt Q63560 1-952)
chain: MAWPCITRACCIARFWNQLDKADIAVPLVFTKYSEATEHPGAPPQPPAPPQPGLAPPSRAVAIETQPAQGESDAVARATGPAPGPSGDRETAAAPGRSGLGLGAASGSTSGSGPADSVMRQDYRAWKVQRPEPSCRPRSEYQPSDAPFERETQYQKDFRAWPLPRRGDHPWIPKPVQIPATSQPSPPVLGMPKRRPQSQERGPIQLSADARDPEGAGGAGVPAAGKASGADQRDTRRKAGPAWMVTRTEGHEEKPLPPAQSQTQEGGPAAGKASGADQRDTRRKAGPAWMVTRTEGHEEKPLPPAQSQTQEGGPAAGKASGADQRDTRRKAGPAWMVTRTEGHEETPLPPAQSQTQEGGPAAGKASGADQRDTRRKAGPAWMVTRTEGHEETPLPPAQSQTQEGGPAAGKASGADERDTRRKAGPAWMVRRSEGHEQTTAAHAQGTGPEGGKGRAVADALNRQIREEVTSTVSSSYRNEFRAWTDIKPVKPIKAKPQYKPPDDKMVHETSYSAQFKGEASKPTTADNKVVDRRRIRSLYSEPFKESPKVEKPSVQSSKPKKTSTSQKPLRKAKDKQVASGQAAKKKTTESPSATKPDDKEQSKEMNNKLAEAKESRVKPTSDKNQGPVAKEPHKDQGPVAPGLPKGQGPAVQEPLKDQGPMVPGLPKDQAPVVPGSLKGQSPTAPGPPKDQGAVLLGPMKDLGPVAPASVKDQDHMASELLKNKDSVPLAPAKAQSPLLPEPLKNQSPVVPARAKDQSFPAPAPTPLKDPGPVIPEPEKDGAPMVPERRKDQNASIMASLKNEAPVASESVKNQGLGGPEPAKDTGTDLKGHGSVFVAPVKSQGPVVPEPTKGQDPIIPALAKDQGPILPEPPKNQGPPVVLGPIKNQDPVIPVPLKGQDPVVPAPTKDPGPTAPDPLKSQGPRGPQLPTVSPSPPVMIPTVPHAEYIEGSP
B8: Mitochondrial glutamate carrier 2 (protein, UniProt Q505J6 1-320)
chain: MIACRMSSQDLSITAKLINGGIAGLVGVTCVFPIDLAKTRLQNQQGKDVYKGMTDCLVKTARAEGFLGMYRGAAVNLTLVTPEKAIKLAANDFLRQLLMQDGTQRNLKMEMLAGCGAGICQVVITCPMEMLKIQLQDAGRLAVCQQASASATPTSRPYSTGSTSTHRRPSATLIAWELLRTQGLSGLYRGLGATLLRDIPFSIIYFPLFANLNQLGVSELTGKASFTHSFVAGCAAGSVSAVAVTPLDVLKTRIQTLKKGLGEDTYRGVTDCARKLWTQEGAAAFMKGAGCRALVIAPLFGIAQGVYFIGIGERILKCFE
B9: Myelin proteolipid protein (protein, UniProt P60203 1-277)
chain: MGLLECCARCLVGAPFASLVATGLCFFGVALFCGCGHEALTGTEKLIETYFSKNYQDYEYLINVIHAFQYVIYGTASFFFLYGALLLAEGFYTTGAVRQIFGDYKTTICGKGLSATVTGGQKGRGSRGQHQAHSLERVCHCLGKWLGHPDKFVGITYALTVVWLLVFACSAVPVYIYFNTWTTCQSIAFPSKTSASIGSLCADARMYGVLPWNAFPGKVCGSNLLSICKTAEFQMTFHLFIAAFVGAAATLVSLLTFMIAATYNFAVLKLMGRGTKF
B10: Atlastin-1 (protein, UniProt Q6PST4 1-558)
chain: MAKSRRDRNSWGGFSEKSSDWSSEEEEPVRKAGPVQVLIVKDDHSFELDEAALNRILLSEAVRDKEVVAVSVAGAFRKGKSFLMDFMLRYMYNQESVDWVGDYNEPLTGFSWRGGSERETTGIQIWSEVFLINKLDGKKVAVLLMDTQGTFDSQSTLRDSATVFALSTMISSIQVYNLSQNVQEDDLQHLQLFTEYGRLAMEETFLKPFQSLIFLVRDWSFPYEFSYGADGGAKFLEKRLKVSGNQHEELQNVRKHIHSCFTNISCFLLPHPGLKVATNPNFDGKLKEIDDEFIKNLKILIPWLLSPESLDIKEINGNKITCRGLLEYFKAYIKIYQGEELPHPKSMLQATAEANNLAAVATAKDTYNKKMEEICGGDKPFLAPNDLQTKHLQLKEDSVKLFRGVKKMGGEEFSRRYLQQLESEIDELYIQYIKHNDSKNIFHAARTPATLFVVIFITYVIAGVTGFIGLDIIASLCNMIMGLTLITLCTWAYIRYSGEYRELGAVIDQVAAALWDQGSTNEALYKLYSAAATHRHLYQQAFPAPKSEPTEQPEKKKI

Molecular target: T1, BRI2 (integral membrane protein 2B) (rat (endogenous in brain))
Assay: affinity purification with mass spectrometry; mouse anti-BRI2 antibody (N-terminal region) on Dynabeads Protein G; pre-cleared rat cerebral cortex, hippocampus and cerebellum lysates (50 mM Tris-HCl pH 8.0, 120 mM NaCl, 4% CHAPS), overnight at 4 °C; co-precipitated proteins identified by nano-HPLC-MS/MS; hits absent from the two mock IPs or with a PSM ratio >= 2.0

Binder | binding
B1 | binds
B2 | binds
B3 | binds
B4 | binds
B5 | binds
B6 | binds
B7 | binds
B8 | binds
B9 | binds
B10 | binds
